This passage reports z-score results from PubChem BioAssay AID1347423 (Functional Genomics Laboratory (NCATS/FGL), 2020).

Screen size: about 52,000 sequences; about 210 (0.4%) were called active.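 Rule for the calls: active = gene whose silencing raises cell survival under the drug, median off-target-corrected z-score across its silencing RNAs 2 or more; inactive = the rest.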 The list shows a part of the results.

The nature of the test: Resistance to Poly (ADP-Ribose) Polymerase inhibitor: Gene Identification via Genome-wide siRNA Screen. The settings on record: mouse BRCA2 R2336H ES cells, olaparib, CellTiter-Glo viability; stronger effect = higher value. Put shortly: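 Mouse BRCA2 R2336H ES cells were reverse-transfected with siRNA (20 nM final), treated at 48 h with 500 nM olaparib, and read by CellTiter-Glo after 72 h. Scores: MAD-based z per siRNA, median per gene, seed off-target correction.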
In general terms: In ATP-based viability assays light output follows the ATP content of the culture.
For “GGCACUGAAAAGAAAGAAGTT against 2310010I16Rik”, the z-score was inactive: -1.52. Next, GGUUCAGAUAUCUCAGUAUTT against Rcor1: inactive: 0.744. In the case of GGACUAUAUGAGAUAAACUTT against Pask, the z-score was inactive: -0.722. Next, GGCUGUGACUUGUUAAUCATT against AW049604: inactive: -1.7.

Consider AAUGAUGCCAUAAAGAGUGTT against Olfr114, for which the z-score is inactive: -1.05.

With CCAUAGGUAUCAUUGCAAGTT against Tas2r139, the z-score was inactive: -0.382.

With GGCCAAUUUGUUGAUUCCUTT against Rheb, the z-score was inactive: 1.16. Turning to GGUGCUGUGUUUACGUUUGTT against Rpgr, the z-score was inactive: -1.19.

In the case of GGAAAAGCAAACCAGAAUCTT against Nr1d1, the z-score is inactive: 0.904. For GGUCUUUGAGAAGUACCACTT against Chst3 the value was inactive: 0.412. Consider CGAAGCAACAAGGAAAUUGTT against Anxa13, for which the z-score is inactive: 1.14.

As for GCUGAUGUGAAUCCAUCCATT against AL033326, the z-score is inactive: -0.488. As to “AUGGGACUCAUGUAAUGGUTT against 2410015A16Rik”, the z-score is inactive: 0.922. Next, CGGUAAUUGCAUUUUAAAGTT against Vps4b: inactive: 0.812; GCUGAAUACCCUUUUAGUUTT against Atp2c1: inactive: -0.0892.

With CCUUUGUGACCAAGAUGGUTT against Ttyh3, the z-score is inactive: -0.779. For GGAUUUCCUUUUAAGACUUTT against Rab3il1 the value was inactive: 0.838; for GGCCACAGAAUUGAAAGAUTT against Il2, inactive: -0.624. Regarding GGACAUGAAGUGUAUAUAUTT against Il13ra2, the z-score was inactive: -1.91.

As for CCAGGUGCUAUGAGAUUAGTT against ORF21, the z-score is inactive: 0.606. Turning to GCCUAUUCUUUUCGGGAUATT against Olfr39, the z-score was inactive: -1.74.

Regarding GGCACUUAAGUAUUCUUCATT against Wac, the z-score is inactive: -1.02. As to GGAUCUCCCUCUAAAUAUUTT against Hspca, the z-score is inactive: 0.537. For AUAAAGAUGUUGCUGUUGCTT against Olfr44 the value was inactive: -0.687; for GGCUGUGUAUGCUUUACCATT against Dnajc11, inactive: -0.103. For GGGACUCUAAAAUCUCAGGTT against Samd10 the value was inactive: 0.36; for “GGGACUUGUCCAUCCUUUUTT against C130060K24Rik”, inactive: 2.31. Next, “CCCGGGUCUUUGAUAUCUUTT against B130050I23Rik”: inactive: 0.0321; “GCAGUCCAAAAAAUUCGGUTT against 4933409N07Rik”: inactive: 0.183; GGUGGUGUCAACCUUAAAATT against Vmp: inactive: -0.208. With GGUGCCAACCUCAAUUCAUTT against Hnf4a, the z-score is inactive: -0.607. Next, GGCCAAAUACCUUACCAAGTT against Pold2: inactive: -0.732. Next, GGCAUUUUAUCUGUUAGACTT against Serpinh1: inactive: -0.509; “GGAGGAAACACAUCAUUUGTT against D1Bwg0491e”: inactive: 0.384. Next, “GCAAAGACGAAAUGCCGAGTT against 1700013G20Rik”: inactive: 0.448; “GGAGACUUUCAGGAGAUUUTT against 2410127L17Rik”: inactive: -0.986. As for GGAAAUCUGUGUGAUUGAATT against Pcca, the z-score was inactive: 1.63. For GCAUGUGGAGAAGAUGAGGTT against Tas2r143 the value was inactive: 0.405; for CGAAGUGCUUCAAUAGUAATT against Rnf14, inactive: 0.678. Consider GGGCUUUUGGCUUCAUGACTT against Pcbd, for which the z-score is inactive: 0.397. On to CCAGCUCAGUUCCAAACAATT against Dnajc12, for which the z-score was inactive: 1.73.

As to GGUGUGACCUCAUCUUUUUTT against Suv420h2, the z-score was inactive: 0.929. As for GGGAAGGAGAGUAUUCCAATT against Mrpl14, the z-score was inactive: 0.193. Next, GCAUCUUAUCAAAUAUCCATT against Abca1: inactive: 0.689. With GGUCUCUGGUACACUUCAUTT against Ramp1, the z-score is inactive: -0.747.

As for GGGCUUGAAAGCAUACAAATT against Bcat2, the z-score was inactive: 0.0561. Regarding CGGUGAAAGACUUCAGUAUTT against Ppfibp1, the z-score is inactive: -0.621. For GCUCAGGAACAUUUGGACATT against Cyp2a5 the value was inactive: 0.218; for GGUUUGGACACCUCUGUCATT against Adcy9, inactive: -2.7. Consider CGUGGAACAUAAGAAUGGATT against Gapds, for which the z-score is inactive: 0.998.

Regarding GGGACACGUUUUCUGUGCATT against Lrrk1, the z-score was inactive: -1.06. Next, GGAUGAGGAAAACUUCCAGTT against Mup5: inactive: -1.47. Take “GGCGGAGAACCAUUGAGGATT against 2410141M05Rik”: the z-score is inactive: 0.344. For “CGGCAUGUCCUUCAUCGCUTT against 5430407P10Rik”, the z-score was inactive: -0.0323. Turning to GGGAAAAUCAAGACCAAUUTT against Rpp30, the z-score is inactive: -1.08. For CCAAAUGUGCAGGUUGGAGTT against Exosc3 the value was inactive: -0.481; for GGCUACGAUCCUACAGUGGTT against Rhebl1, inactive: -0.634; for CCCAAGAAGUUUUAUUCUGTT against BC050789, inactive: 0.751. For “GGGUGGAAAAUUUCAGUUUTT against 2510010F15Rik” the value was inactive: 0.18; for GGUUACAGGAUGUUCUUAUTT against Fmo2, inactive: -1.1. Next, “GGAGGUACAUCAAAUGGUGTT against 9930020N01Rik”: inactive: 0.436; CCAACAAUGCCGCCAUCAUTT against Gmfg: inactive: 1.5; UGAAGCUGUCCCGGACUAATT against LOC435684: inactive: -1.38.

Consider GGGUUAUACCCAGAAUUUCTT against BB219290, for which the z-score is inactive: 1.17. Next, GGACUGGAUUUCAUUUAGATT against Fgf9: inactive: 0.325; AACUAGCAAUAUGAUGGAGTT against Chic1: inactive: 0.205.

As to CCGGGAAACCAACAAAUCATT against Rbmxrt, the z-score was inactive: -0.911.

With GGACAGAGACAAGAAAAUATT against Ptpn11, the z-score was inactive: 0.741. For CCUUAAAUGGAGCUUCAGATT against Insrr the value was inactive: 1.35; for GGCCUUCUCCAAGGAGAAGTT against Ptrf, inactive: 0.452. Take GGCCCUGGAAACUAAGCUUTT against Aldob: the z-score was inactive: -0.807.

Consider GCGGAGGAUAGAGCAAAUUTT against Upf3b, for which the z-score is inactive: 0.302. For CCUUUGGUAAUCUCCAAAATT against Amph the value was inactive: 0.404; for GGACAAGGAAACAAAUUCATT against F8, inactive: 0.77. Next, CGGACUAUCUCUAUGAAGATT against Tas2r108: inactive: -0.69. For the sequence “GGCUGAACAAGAGAAACCATT against 2700038C09Rik”, the z-score is inactive: -0.606. CCUUAACUCACUUCAUAAUTT against Vps35: the z-score is inactive: 0.212. GGAAAAGAAGAUGAACAAGTT against Slc24a1: the z-score was inactive: -0.842.

For GCUUCUGCUUGUUCGCUAGTT against Dub2a, the z-score was inactive: 0.379. Next, CCCAUUAUUAACGCGAAGGTT against Pfn4: inactive: 0.618; GGAAGUACCAGGAAGCUGATT against Stmn4: inactive: -0.247; “GCUCUUGGUCCGUCUUCAGTT against 6030452D12Rik”: inactive: -1.22.

Turning to GGAUGACAACAACACUCUGTT against Cacna1s, the z-score is inactive: -0.229.

As to GGACACAAUGACAAAGUCCTT against Wdfy2, the z-score was inactive: -0.456. Next, GGGAAUCAGAUUUGACCUUTT against Mrpl19: inactive: 0.189; GGAAAAUAAGGACACUAGUTT against Zfx: inactive: -0.142. Next, GGUUCUCAUGAACAGUGAGTT against Tm9sf4: inactive: -1.16.

In the case of GUAAAUCCAAUUCCUCAGCTT against Vax1, the z-score is inactive: -0.205. Next, “GGAUAUGGAUCUUAUGAAGTT against 4930558O21Rik”: inactive: 1.13. CGGACUCAGUCAUCAUUGCTT against Atf7: the z-score was inactive: 0.755. Next, CGCGGAAACUCUCCACUUATT against Psme4: inactive: -0.44; “GGAGUCAUGUCUGUUGGCATT against 1300019C06Rik”: inactive: -0.415. As for “CCAUACCUAAAUCUGCAUUTT against 4930565A21Rik”, the z-score was inactive: -0.355. On to GUGGAUUGAGGAUGGAAUCTT against Gng13, for which the z-score is inactive: -0.253. Consider GCGAUCAGUACUGAAGGAATT against Siglec5, for which the z-score was inactive: -1.44. Next, CCCAAUGGUUGUACCAAUATT against Zp3r: inactive: 0.759.

Turning to GCUAGUCCGGUACUUCUUGTT against Bckdk, the z-score was inactive: 1.65. For GGGAGAAACUAUUUAGUCUTT against Inhbe the value was inactive: -0.402; for GCUUAGAAAUCUUAUCCCATT against Hnrpc, inactive: 0.412; for GGCGAGGAGAAAAGAGUUUTT against Wfdc12, inactive: 0.591. With “GCAUCAAGAUUAAGGUUGUTT against 8030451F13Rik”, the z-score is inactive: 0.548.

GGCAUUGUCACUGUGUCUGTT against Sphk2: the z-score was inactive: -1.01. Regarding GGUCAUCGACUUCUCCAAGTT against Grik5, the z-score was inactive: -0.418. Next, GGGUACGUUCAAGUGCUUCTT against Agtpbp1: inactive: -0.398.
